Experimental data as given in US20250002954A1, “Novel Compound, Use Thereof, and Method for Producing Same, and Compound-Containing Composition, Method for Producing 4-Trehalosamine, and Microorganism” (Microbial Chemistry Research Foundation, priority 2021, published 2025).
Some entries repeat one wording, which the source may state once for all of them.

Legend:
[1] = Sweetness test by professional panelists; details: for sweetness score, Average: 50 mg/100 μL aqueous solution, 10 μL licked, twelve professional panelists, water alone 0, sweetest 10, blind test
[2] = tested on: human ovarian cancer cells OVK18; test: Evaluation of protein extraction efficiency (BCA protein concentration, SDS-PAGE); details: OVK18 cells in TBS, 1 hour at 4° C., test samples 0.005% to 1%
[3] = tested on: membrane proteins (EGFR, Na+/K+-ATP ase, TRPV6) of human ovarian cancer cells OVK18; test: Determination of membrane protein extraction efficiency by western blotting; details: test sample 0.05% or 0.5%

| Molecule | sweetness score, Average [1] | membrane protein extraction efficiency [3] | other results |
| --- | --- | --- | --- |
| N[C@H]1[C@H](O)[C@@H](O)[C@@H](O[C@H]2O[C@H](CO)[C@@H](O)[C@H](O)[C@H]2O)O[C@@H]1CO [4-trehalosamine] | 7.04 |  | taste ([1]; sweetness test): clear sweetness, with no unpleasant flavor or odor |
| CCCCCCCCCCCCO[C@@H]1O[C@H](CO)[C@@H](O[C@H]2O[C@H](CO)[C@@H](O)[C@H](O)[C@H]2O)[C@H](O)[C@H]1O [DDM, n-dodecyl-β-D-maltoside, reference compound] |  |  | protein extraction efficiency [2]: high extraction efficiency |
| CCCCCCCCCCCN[C@@H]1C(CO)O[C@H](O[C@H]2OC(CO)[C@@H](O)C(O)C2O)C(O)C1O (stereo partly shown) [IMCTA-C11] |  | high efficiency of membrane protein extraction |  |
| CCCCCCCCCCCCN[C@@H]1C(CO)O[C@H](O[C@H]2OC(CO)[C@@H](O)C(O)C2O)C(O)C1O (stereo partly shown) [IMCTA-C12] |  | high efficiency of membrane protein extraction |  |
| CCCCCCCCCCCCCN[C@@H]1C(CO)O[C@H](O[C@H]2OC(CO)[C@@H](O)C(O)C2O)C(O)C1O (stereo partly shown) [IMCTA-C13] |  | high efficiency of membrane protein extraction |  |
| CCCCCCCCCCCCCCN[C@@H]1C(CO)O[C@H](O[C@H]2OC(CO)[C@@H](O)C(O)C2O)C(O)C1O (stereo partly shown) [IMCTA-C14] |  | high efficiency of membrane protein extraction |  |
| OC[C@H]1O[C@@](CO)(O[C@H]2O[C@H](CO)[C@@H](O)[C@H](O)[C@H]2O)[C@@H](O)[C@@H]1O [sucrose] | 9.83 |  |  |
| OC[C@H]1O[C@H](O[C@H]2O[C@H](CO)[C@@H](O)[C@H](O)[C@H]2O)[C@H](O)[C@@H](O)[C@@H]1O [trehalose, reference compound] | 5.5 |  |  |
| Triton X-100 |  |  | protein extraction efficiency [2]: high extraction efficiency |
